Experimental findings from PubChem BioAssay AID248 (DTP/NCI, 2004) are described below.

Structures are written as SMILES. The list shows only some results of the screen, not a fair sample: it is rich in T/C values a quarter to a half above the control, in often repeated tests (any T/C) and in doses without a T/C. Further doses and runs are listed elsewhere. T/C: endpoint of the treated group in % of that of the vehicle group. Some entries give survivors of the animals treated and no T/C: the source files T/C as zero there, which appears to mark a toxic dose or a test without result, not a measured value. Some doses without a T/C left all or most animals alive at the check, yet need not have been tolerated: survival well below the control is almost never listed, so the zero probably covers shortened survival too. Counts of survivors are from the toxicity check (mostly the fifth day) where no day follows; animals may have died later. Schedule codes are those of the source, read here as Q, the interval in days (D) or hours (H), X, the number of doses. Some schedule codes hold Z or #, which are not explained here. Where survival is the endpoint, the PubChem record calls one and a half times the control and up active, and a quarter to a half above the control has no call in these data; cut-offs in other NCI protocols can differ. Some entries hold several experiments; their values stand side by side, smallest first.

This experiment has as its system L1210 leukemia ip in BDF1 mice, survival T/C. Nature of the experiment: NCI In Vivo Anticancer Drug Screen. Data for tumor model L1210 Leukemia (intraperitoneal) in B6D2F1 (BDF1) mice. The note with it: T/C endpoint: mean survival time, higher T/C = longer survival.
[1] abbreviates: dose: 400.0 mg/kg/injection, schedule: Q01DX001 (ip), vehicle: saline with Tween-80.
Setting [2] is: dose: 400.0 mg/kg/injection, schedule: Q04DX003 (ip), vehicle: saline with Tween-80.
Where [3] appears, read: dose: 400.0 mg/kg/injection, schedule: Q04DX003 (ip), vehicle: saline.
[4] abbreviates: dose: 400.0 mg/kg/injection, schedule: Q01DX001 (ip), vehicle: saline.
The mark [5] stands for this setting: dose: 400.0 mg/kg/injection, schedule: Q01DX009 (ip), vehicle: Klucel (hydroxypropylcellulose) (HPC).
The mark [6] stands for this setting: dose: 400.0 mg/kg/injection, schedule: Q04DX003 (ip), vehicle: Klucel (hydroxypropylcellulose) (HPC).
[7] abbreviates: dose: 200.0 mg/kg/injection, schedule: Q01DX009 (ip), vehicle: Klucel (hydroxypropylcellulose) (HPC).
Where [8] appears, read: dose: 400.0 mg/kg/injection, schedule: Q01DX001 (ip), vehicle: carboxymethylcellulose (CMC).
The mark [9] stands for this setting: dose: 200.0 mg/kg/injection, schedule: Q04DX003 (ip), vehicle: saline.

Regarding `O=C(NC(=S)Nc1ccc(Cl)c(Cl)c1)c1ccc(Cl)cc1Cl`, the survivor count (dose: 200.0 mg/kg/injection, schedule: Q04DX002 (ip), vehicle: saline with Tween-80) is on record as 3 of 3 and the survivor count under setting [1] is on record as 6 of 6.
Turning to `O=S(O)O`, the survivor count is, setting by setting: (dose: 800.0 mg/kg/injection, schedule: Q01DX001 (ip), vehicle: saline) 0 of 6; (dose: 800.0 mg/kg/injection, schedule: Q01DX009 (ip), vehicle: saline) 0 of 6.
For `Nc1ncnc2c1ncn2C(C=O)OC(C=O)CO` (stereo unspecified), the T/C was 144 % of control (dose: 8.75 mg/kg/injection, schedule: Q01DX009 (ip), vehicle: water); 125 % of control (dose: 20.0 mg/kg/injection, schedule: Q01DX Z (ip), vehicle: carboxymethylcellulose (CMC)); 130 and 137 % of control (dose: 30.0 mg/kg/injection, schedule: Q01DX Z (ip), vehicle: carboxymethylcellulose (CMC)); 126 % of control (dose: 35.0 mg/kg/injection, schedule: Q01DX009 (ip), vehicle: water); 149 % of control (dose: 45.0 mg/kg/injection, schedule: Q01DX Z (ip), vehicle: carboxymethylcellulose (CMC)). The survivor count is 5 of 6 (dose: 67.5 mg/kg/injection, schedule: Q01DX Z (ip), vehicle: carboxymethylcellulose (CMC)); 6 of 6 (dose: 101.0 mg/kg/injection, schedule: Q01DX Z (ip), vehicle: carboxymethylcellulose (CMC)); 3 of 6 (dose: 152.0 mg/kg/injection, schedule: Q01DX Z (ip), vehicle: carboxymethylcellulose (CMC)); 0 of 6 (dose: 216.0 mg/kg/injection, schedule: Q01DX Z (ip), vehicle: carboxymethylcellulose (CMC)); 1 of 6 (dose: 267.0 mg/kg/injection, schedule: Q01DX009 (oral), vehicle: saline); 0 of 6 (dose: 308.0 mg/kg/injection, schedule: Q01DX Z (ip), vehicle: carboxymethylcellulose (CMC)). For the same molecule, the survivor count (dose: 400.0 mg/kg/injection, schedule: Q01DX009 (oral), vehicle: saline) is on record as 0 of 6 and the survivor count (dose: 600.0 mg/kg/injection, schedule: Q01DX009 (oral), vehicle: saline) was 0 of 6.
`CC(=O)C(Cl)C(O)(C(F)(F)F)C(F)(F)F` (stereo unspecified): the survivor count under setting [2] is listed as 2 of 6.
For `CCN(CC)CC(=O)NCC(CC)(CCN1CCOCC1)c1cccc2ccccc12` (stereo unspecified), under setting [3], the survivor count is listed as 5 of 6.
As to `O=CC(CO)CC(C=O)n1cnc2c(=O)[nH]cnc21` (stereo unspecified), the T/C was 129 % of control (dose: 200.0 mg/kg/injection, schedule: Q01DX001 (ip), vehicle: saline) and 137 % of control under setting [4].
In the case of `CC1(C)N=C(N)N=C(N)N1c1ccc(OCCNS(=O)(=O)c2ccc(S(=O)(=O)F)cc2)c(Cl)c1`, the survivor count is recorded as 5 of 6 (dose: 200.0 mg/kg/injection, schedule: Q04DX003 (ip), vehicle: saline with Tween-80) and 0 of 6 under setting [2].
Consider `C#CC(=O)CCCCCCl`, for which the survivor count runs as follows: (dose: 50.0 mg/kg/injection, schedule: Q04DX002 (sc), vehicle: olive oil, sesame oil, peanut oil) 0 of 3; (dose: 100.0 mg/kg/injection, schedule: Q04DX002 (sc), vehicle: olive oil, sesame oil, peanut oil) 0 of 3; (dose: 200.0 mg/kg/injection, schedule: Q04DX002 (sc), vehicle: olive oil, sesame oil, peanut oil) 0 of 3; (dose: 400.0 mg/kg/injection, schedule: Q04DX002 (sc), vehicle: olive oil, sesame oil, peanut oil) 0 of 3.
As for `CCC(C)c1ccc(OCCO)cc1` (stereo unspecified), the survivor count under setting [4] is listed as 1 of 4.
As to `Cc1ncc(C(O)c2ccc(N(C)C)cc2)n1Cc1ccccc1` (stereo unspecified), the survivor count under setting [5] is recorded as 3 of 3.
Turning to `c1ccc(C23c4ccccc4C2c2ccccc23)nc1` (stereo unspecified), the survivor count (dose: 100.0 mg/kg/injection, schedule: Q01DX009 (ip), vehicle: gum acacia) is on record as 0 of 6; the survivor count (dose: 200.0 mg/kg/injection, schedule: Q01DX009 (ip), vehicle: gum acacia) is given as 0 of 6; the survivor count (dose: 400.0 mg/kg/injection, schedule: Q01DX009 (ip), vehicle: gum acacia) is recorded as 0 of 6.
For `COC(=O)C(CSCc1ccccc1)NC(=O)OCc1ccccc1` (stereo unspecified), the survivor count under setting [6] is on record as 6 of 6.
Consider `COc1ccc(C2C(=O)c3ccc(OC)c(OC)c3C2=O)cc1OC` (stereo unspecified), for which the survivor count under setting [4] is given as 1 of 6.
Take `C[n+]1c(/C=C/c2ccnc3c(O)cccc23)sc2ccccc21`: the survivor count (dose: 60.0 mg/kg/injection, schedule: Q01DX001 (ip), vehicle: saline) is on record as 4 of 6.
For `CC(N)c1ccccc1` (stereo unspecified), the survivor count under setting [1] is given as 2 of 6.
On to `CCCC(C(=O)O)C(CCC)C(=O)O` (stereo unspecified), for which the survivor count (dose: 400.0 mg/kg/injection, schedule: Q01DX009 (ip), vehicle: saline with Tween-80) is listed as 6 of 6.
With `O=[N+]([O-])c1ccc(S(=O)Cc2ccccc2)c2c1no[n+]2[O-]` (stereo unspecified), the survivor count by setting is: (dose: 50.0 mg/kg/injection, schedule: Q04DX003 (ip), vehicle: saline with Tween-80) 2 of 4; (dose: 100.0 mg/kg/injection, schedule: Q04DX003 (ip), vehicle: saline with Tween-80) 0 of 4.
On to `Cc1cc(NC(=O)Nc2cccc(C3=NCCN3)c2)ccc1NC(=O)Nc1cccc(C2=NCCN2)c1`, for which the T/C (dose: 120.0 mg/kg/injection, schedule: Q01DX Z (ip), vehicle: saline) is 138 % of control.
Regarding `Cc1cccc(C)c1NC(=O)c1c(Cl)c(Cl)c(Cl)c(Cl)c1C(=O)O`, the survivor count was 3 of 6 under setting [7] and 0 of 6 under setting [5].
With `CC(CC(=O)c1ccc(F)cc1)N1CCCCC1` (stereo unspecified), the survivor count under setting [8] was 1 of 4.
Consider `Cc1ccc(NC2=NCCO2)cc1`, for which the survivor count under setting [8] is recorded as 1 of 4.
Regarding `O=[N+]([O-])c1cccs1`, the survivor count was 6 of 6 under setting [7] and 0 of 6 (dose: 400.0 mg/kg/injection, schedule: Q04DX003 (ip), vehicle: other).
`CCCCN(CCCC)N=Nc1c[nH]c(=O)[nH]c1=O`: the survivor count reads like this: (dose: 32.0 mg/kg/injection, schedule: Q01DX Z (ip), vehicle: carboxymethylcellulose (CMC)) 6 of 6; (dose: 64.0 mg/kg/injection, schedule: Q01DX Z (ip), vehicle: carboxymethylcellulose (CMC)) 0 of 6.
Take `CC1=CC23C(COC(=O)C24CO4)C(C(=O)O)=CC3C1C` (stereo unspecified) (tested in a mixture with another compound): the survivor count is 2 of 6 (dose: 5.0 mg/kg/injection, schedule: Q01DX001 (ip), vehicle: saline); 0 of 6 (dose: 10.0 mg/kg/injection, schedule: Q01DX001 (ip), vehicle: saline); 0 of 6 (dose: 20.0 mg/kg/injection, schedule: Q01DX001 (ip), vehicle: saline); 0 of 6 (dose: 40.0 mg/kg/injection, schedule: Q01DX001 (ip), vehicle: saline); 0 of 6 (dose: 75.0 mg/kg/injection, schedule: Q01DX001 (ip), vehicle: saline); 0 of 6 (dose: 150.0 mg/kg/injection, schedule: Q01DX001 (ip), vehicle: saline). Besides, the survivor count (dose: 300.0 mg/kg/injection, schedule: Q01DX001 (ip), vehicle: saline) is reported as 0 of 6.
Turning to `O=C1OC(OC(=O)c2ccccc2)C(Br)=C1Br` (stereo unspecified), the survivor count under setting [6] is recorded as 3 of 6.
Take `CCCCCCCCCCCCCCCCCCSCCO`: the survivor count (dose: 200.0 mg/kg/injection, schedule: Q04DX003 (ip), vehicle: Klucel (hydroxypropylcellulose) (HPC)) is recorded as 6 of 6.
Take `CCC(=O)OC(CCN(C)C)(Cc1ccccc1)c1ccccc1` (stereo unspecified): the survivor count under setting [9] is 1 of 6 and the survivor count under setting [3] was 0 of 6.
As to `CCOC(=O)/C=C/C(=O)O.[Co]`, the survivor count reads like this: under setting [9], 0 of 4; under setting [3], 0 of 4.
